# Values from PubChem BioAssay AID1259308 (NCATS, 2017).
# Assay: 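Genes whose loss raises luciferase production in HEK293 cells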 (primary screen)
# System: human HEK293 embryonic kidney cells stably expressing firefly luciferase (HEK-CMV-Luc2-Hygro)
# Knock-down reagent: single siRNA against human genes, 0.8 pmol siRNA per well
# Duration: 72 h
# Measured: 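Reporter luminescence and viable-cell signal on separate replicate plates, given as percent of non-targeting control and median/MAD z-scores, plus per-cell luciferase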
# Reading the numbers: total luciferase, z-score and total luciferase, % of control: higher = more reporter protein produced; luciferase per cell, z-score: higher = more reporter output per viable cell; viable cells, % of control: higher = more viable cells
# Active means: 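Active when the median/MAD z-score for overall luciferase is greater than 3; a gene was taken forward for validation with new siRNAs if at least two of its three siRNAs passed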
# Calls: active = raised luciferase; inactive = no rise
# This is a random part of about 59,000 deposited reagents. Over the whole deposit, about 1,510 (2.6%) got an active call. 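Calls use total luciferase alone and ignore viability, so some active siRNAs may act by altering cell number.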 Reagents against one gene are numbered here.
gene,reagent no.,"total luciferase, z-score","total luciferase, % of control","luciferase per cell, z-score","viable cells, % of control",Call
CRYGN,1,1.76,117,2.36,70.2,inactive
CRYGN,2,0.543,92.7,0.274,96.4,inactive
CRYGN,3,-1.77,46.7,-1.48,77.2,inactive
RSU1,1,0.895,99.7,1.09,83.6,inactive
RSU1,2,-0.216,77.6,-0.379,95.8,inactive
RSU1,3,-0.00175,81.9,-0.602,107,inactive
ALDH18A1,1,0.00164,81.9,0.0954,89.3,inactive
ALDH18A1,2,-0.663,68.7,-0.302,83.1,inactive
ALDH18A1,3,0.481,91.5,0.401,92,inactive
ADGRB2,1,1.13,104,0.641,98.6,inactive
ADGRB2,2,-0.696,68,-0.344,83.2,inactive
ADGRB2,3,0.0375,82.6,0.117,89.5,inactive
PHLDB3,1,-0.65,69,-0.39,85.4,inactive
PHLDB3,2,-1.11,59.8,-0.862,83.9,inactive
PHLDB3,3,0.603,93.9,0.221,99,inactive
PHLDB3,4,-0.875,64.5,-0.449,81.1,inactive
PHLDB3,5,0.364,89.1,-0.225,106,inactive
PHLDB3,6,1.05,103,0.891,90.9,inactive
METTL9,1,-0.575,70.4,-1.1,105,inactive
METTL9,2,1.3,108,0.652,101,inactive
METTL9,3,-1.84,45.2,-1.98,85,inactive
TBC1D13,1,0.205,86,-0.188,101,inactive
TBC1D13,2,-0.496,72,-0.712,97.1,inactive
TBC1D13,3,2.31,128,1.44,97.8,inactive
GCC2,1,-0.212,77.7,0.961,67.4,inactive
GCC2,2,-0.349,74.9,-0.224,88.8,inactive
GCC2,3,0.739,96.6,1.26,77.4,inactive
GNAI3,1,-0.769,66.6,-1.02,97.3,inactive
GNAI3,2,1.46,111,0.726,102,inactive
GNAI3,3,-0.435,73.2,-0.629,96.6,inactive
IL18R1,1,0.0353,82.6,0.00867,92.1,inactive
IL18R1,2,-0.589,70.2,-0.341,85.8,inactive
IL18R1,3,0.269,87.2,-0.666,116,inactive
SLC30A7,1,-0.39,74.1,-0.572,96.3,inactive
SLC30A7,2,0.409,90,-0.532,116,inactive
SLC30A7,3,1.57,113,0.947,98.6,inactive
GMFG,1,-0.355,74.8,-0.612,98.2,inactive
GMFG,2,1.06,103,1.86,70.5,inactive
GMFG,3,-1.5,52.1,-1.63,89.4,inactive
DNAH17,1,-0.0853,80.2,0.216,84.6,inactive
DNAH17,2,0.646,94.7,0.885,83.9,inactive
DNAH17,3,-0.357,74.8,-0.143,86.8,inactive
AAMP,1,-1.12,59.6,-1.03,87.2,inactive
AAMP,2,-0.843,65.1,-0.732,88.2,inactive
AAMP,3,-0.416,73.6,-0.283,88.6,inactive
AMPD3,1,-0.152,78.9,1.97,52.5,inactive
AMPD3,2,0.027,82.4,0.215,87,inactive
AMPD3,3,-0.547,71,-0.96,102,inactive
BCL11A,1,0.514,92.1,2.15,58.4,inactive
BCL11A,2,0.432,90.5,0.765,82.7,inactive
BCL11A,3,0.0532,82.9,0.0682,91,inactive
RPS3AP49,1,-0.166,78.6,0.357,79.9,inactive
RPS3AP49,2,1.88,119,2.46,69.7,inactive
RPS3AP49,3,-0.233,77.3,-0.468,97.6,inactive
WAPL,1,0.107,84,0.0142,93.5,inactive
WAPL,2,0.746,96.7,0.777,88.1,inactive
WAPL,3,1.15,105,0.858,93.4,inactive

Limited to “total luciferase, % of control”, for 3 of the entries above:
SLC30A7 #2	90
SLC30A7 #3	113
GMFG #1	74.8
